Data: the supplement of paper PMC10849652
This is one part of the list.

Sequences of proteins named here, by UniProt entry; tags and fusion partners are left off. A change or cut given only in a name is not applied to a line headed by its entry.
UniProt P0DPD7: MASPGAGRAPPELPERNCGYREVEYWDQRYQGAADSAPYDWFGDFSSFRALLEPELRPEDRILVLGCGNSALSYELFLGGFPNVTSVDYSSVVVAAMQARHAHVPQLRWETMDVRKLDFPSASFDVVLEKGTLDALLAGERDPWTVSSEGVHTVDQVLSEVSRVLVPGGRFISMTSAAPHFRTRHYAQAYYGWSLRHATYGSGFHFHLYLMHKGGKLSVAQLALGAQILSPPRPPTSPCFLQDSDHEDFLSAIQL
UniProt Q96FX2: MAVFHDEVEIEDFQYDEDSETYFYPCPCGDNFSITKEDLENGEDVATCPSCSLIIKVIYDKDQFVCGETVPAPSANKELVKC
UniProt Q13011: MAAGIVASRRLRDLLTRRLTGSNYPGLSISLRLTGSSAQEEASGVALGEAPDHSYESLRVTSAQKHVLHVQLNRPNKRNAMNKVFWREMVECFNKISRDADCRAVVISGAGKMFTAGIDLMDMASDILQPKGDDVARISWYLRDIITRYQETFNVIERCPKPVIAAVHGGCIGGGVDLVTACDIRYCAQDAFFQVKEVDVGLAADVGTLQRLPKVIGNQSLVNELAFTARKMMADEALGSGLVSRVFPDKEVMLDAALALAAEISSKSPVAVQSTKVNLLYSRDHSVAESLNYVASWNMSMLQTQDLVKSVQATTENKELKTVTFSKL
UniProt Q99848: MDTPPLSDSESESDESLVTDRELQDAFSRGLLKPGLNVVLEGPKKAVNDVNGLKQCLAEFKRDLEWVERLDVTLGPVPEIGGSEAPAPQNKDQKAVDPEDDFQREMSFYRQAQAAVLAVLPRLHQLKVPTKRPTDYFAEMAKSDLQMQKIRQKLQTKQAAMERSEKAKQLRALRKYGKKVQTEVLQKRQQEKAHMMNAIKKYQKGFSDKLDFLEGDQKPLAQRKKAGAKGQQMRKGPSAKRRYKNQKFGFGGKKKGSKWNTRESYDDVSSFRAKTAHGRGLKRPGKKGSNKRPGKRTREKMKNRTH
UniProt P26641, whole entry, looked up: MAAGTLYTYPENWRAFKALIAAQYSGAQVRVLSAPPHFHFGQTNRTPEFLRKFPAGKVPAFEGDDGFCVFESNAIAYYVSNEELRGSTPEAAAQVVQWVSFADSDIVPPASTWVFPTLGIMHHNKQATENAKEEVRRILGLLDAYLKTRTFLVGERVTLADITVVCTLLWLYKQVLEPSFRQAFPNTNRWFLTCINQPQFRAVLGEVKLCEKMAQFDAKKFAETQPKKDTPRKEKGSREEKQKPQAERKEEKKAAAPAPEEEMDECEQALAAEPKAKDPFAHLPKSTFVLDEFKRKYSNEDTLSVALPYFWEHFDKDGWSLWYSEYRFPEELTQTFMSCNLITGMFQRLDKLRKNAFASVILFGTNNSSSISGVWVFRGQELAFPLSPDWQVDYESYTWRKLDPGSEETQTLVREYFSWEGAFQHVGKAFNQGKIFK
UniProt Q9H2P9: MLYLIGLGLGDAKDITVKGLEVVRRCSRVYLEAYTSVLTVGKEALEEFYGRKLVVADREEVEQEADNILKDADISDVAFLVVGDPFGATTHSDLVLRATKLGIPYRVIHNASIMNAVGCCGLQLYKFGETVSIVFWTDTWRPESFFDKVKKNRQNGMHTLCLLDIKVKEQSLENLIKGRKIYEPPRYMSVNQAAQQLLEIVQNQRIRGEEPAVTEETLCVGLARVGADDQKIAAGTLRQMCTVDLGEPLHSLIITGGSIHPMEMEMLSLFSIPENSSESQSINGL
UniProt Q96EV8: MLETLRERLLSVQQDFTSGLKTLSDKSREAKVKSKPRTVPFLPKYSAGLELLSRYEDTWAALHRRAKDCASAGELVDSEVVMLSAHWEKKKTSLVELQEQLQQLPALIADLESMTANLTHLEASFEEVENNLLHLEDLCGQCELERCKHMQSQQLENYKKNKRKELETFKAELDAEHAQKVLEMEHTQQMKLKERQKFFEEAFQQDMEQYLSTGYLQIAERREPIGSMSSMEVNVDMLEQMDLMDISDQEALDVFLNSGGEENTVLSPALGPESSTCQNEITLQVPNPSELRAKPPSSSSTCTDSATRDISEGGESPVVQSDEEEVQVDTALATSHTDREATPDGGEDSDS
UniProt P42126: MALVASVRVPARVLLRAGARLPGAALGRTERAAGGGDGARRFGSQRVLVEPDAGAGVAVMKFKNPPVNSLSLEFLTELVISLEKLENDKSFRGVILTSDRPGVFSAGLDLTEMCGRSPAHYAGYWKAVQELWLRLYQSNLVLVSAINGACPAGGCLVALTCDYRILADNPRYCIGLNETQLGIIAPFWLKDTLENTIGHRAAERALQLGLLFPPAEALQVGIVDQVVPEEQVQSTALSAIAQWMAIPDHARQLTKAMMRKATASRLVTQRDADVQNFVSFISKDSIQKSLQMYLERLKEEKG
UniProt O14641: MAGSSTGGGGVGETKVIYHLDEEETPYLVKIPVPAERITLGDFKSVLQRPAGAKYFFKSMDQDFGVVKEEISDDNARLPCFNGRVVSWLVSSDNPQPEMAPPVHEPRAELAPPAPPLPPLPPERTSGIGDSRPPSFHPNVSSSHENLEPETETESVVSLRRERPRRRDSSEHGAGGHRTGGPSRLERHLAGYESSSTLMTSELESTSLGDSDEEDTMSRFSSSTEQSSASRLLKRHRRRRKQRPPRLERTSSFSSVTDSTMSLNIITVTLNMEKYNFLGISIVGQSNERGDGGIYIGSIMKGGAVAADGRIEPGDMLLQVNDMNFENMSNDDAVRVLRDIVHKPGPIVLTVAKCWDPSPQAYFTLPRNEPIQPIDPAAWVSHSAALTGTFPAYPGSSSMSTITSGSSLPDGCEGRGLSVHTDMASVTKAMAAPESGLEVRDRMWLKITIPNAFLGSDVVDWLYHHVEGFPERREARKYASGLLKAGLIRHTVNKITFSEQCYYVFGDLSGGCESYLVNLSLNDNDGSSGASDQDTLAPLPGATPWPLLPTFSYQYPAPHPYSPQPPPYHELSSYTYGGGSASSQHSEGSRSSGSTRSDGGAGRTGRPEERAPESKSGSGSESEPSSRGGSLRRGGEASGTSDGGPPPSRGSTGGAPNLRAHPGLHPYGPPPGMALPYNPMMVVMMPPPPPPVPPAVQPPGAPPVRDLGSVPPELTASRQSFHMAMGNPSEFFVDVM
UniProt Q8NDI1: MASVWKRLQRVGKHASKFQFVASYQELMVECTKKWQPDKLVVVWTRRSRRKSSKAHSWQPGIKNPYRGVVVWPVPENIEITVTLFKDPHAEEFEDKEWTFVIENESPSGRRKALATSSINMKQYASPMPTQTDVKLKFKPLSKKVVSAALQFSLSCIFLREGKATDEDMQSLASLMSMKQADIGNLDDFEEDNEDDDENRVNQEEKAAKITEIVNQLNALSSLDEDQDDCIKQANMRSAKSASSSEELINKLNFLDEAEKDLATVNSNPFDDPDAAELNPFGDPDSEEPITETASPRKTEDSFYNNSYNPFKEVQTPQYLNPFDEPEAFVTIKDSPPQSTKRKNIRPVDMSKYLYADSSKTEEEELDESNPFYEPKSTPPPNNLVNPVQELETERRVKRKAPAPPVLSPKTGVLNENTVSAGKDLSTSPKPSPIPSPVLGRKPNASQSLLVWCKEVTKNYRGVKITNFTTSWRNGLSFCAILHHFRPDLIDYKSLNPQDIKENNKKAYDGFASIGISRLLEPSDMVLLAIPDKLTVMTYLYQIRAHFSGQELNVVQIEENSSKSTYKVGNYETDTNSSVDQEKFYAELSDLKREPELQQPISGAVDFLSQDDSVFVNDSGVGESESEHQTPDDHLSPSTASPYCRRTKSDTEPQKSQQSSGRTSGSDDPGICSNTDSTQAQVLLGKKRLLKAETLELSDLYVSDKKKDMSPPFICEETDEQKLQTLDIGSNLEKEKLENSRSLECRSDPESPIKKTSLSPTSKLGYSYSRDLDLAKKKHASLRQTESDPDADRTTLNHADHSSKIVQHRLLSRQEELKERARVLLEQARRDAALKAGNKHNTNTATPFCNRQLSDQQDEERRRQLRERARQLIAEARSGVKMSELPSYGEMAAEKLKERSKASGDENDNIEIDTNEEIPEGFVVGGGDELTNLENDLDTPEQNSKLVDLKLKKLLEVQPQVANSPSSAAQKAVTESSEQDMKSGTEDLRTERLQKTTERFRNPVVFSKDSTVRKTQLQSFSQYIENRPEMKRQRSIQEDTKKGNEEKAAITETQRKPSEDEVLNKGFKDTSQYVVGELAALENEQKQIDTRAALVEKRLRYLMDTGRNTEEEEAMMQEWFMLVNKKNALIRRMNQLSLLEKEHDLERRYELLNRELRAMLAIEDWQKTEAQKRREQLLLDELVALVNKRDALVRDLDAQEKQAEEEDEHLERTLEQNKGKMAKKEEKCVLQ
UniProt O77932: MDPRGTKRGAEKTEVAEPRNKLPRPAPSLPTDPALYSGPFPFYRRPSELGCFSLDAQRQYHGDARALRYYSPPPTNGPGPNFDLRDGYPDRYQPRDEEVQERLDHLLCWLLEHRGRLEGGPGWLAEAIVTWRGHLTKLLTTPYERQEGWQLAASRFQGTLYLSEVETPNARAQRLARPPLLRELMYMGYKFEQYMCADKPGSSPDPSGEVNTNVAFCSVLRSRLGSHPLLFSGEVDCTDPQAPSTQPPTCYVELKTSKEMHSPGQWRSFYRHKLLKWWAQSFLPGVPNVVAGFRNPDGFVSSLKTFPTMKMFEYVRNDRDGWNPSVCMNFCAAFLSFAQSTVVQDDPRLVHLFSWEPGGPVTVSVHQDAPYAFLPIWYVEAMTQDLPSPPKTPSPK
EEF1AKMT2, A0A494BZY7, UniProt A0A494BZY7, whole entry, looked up: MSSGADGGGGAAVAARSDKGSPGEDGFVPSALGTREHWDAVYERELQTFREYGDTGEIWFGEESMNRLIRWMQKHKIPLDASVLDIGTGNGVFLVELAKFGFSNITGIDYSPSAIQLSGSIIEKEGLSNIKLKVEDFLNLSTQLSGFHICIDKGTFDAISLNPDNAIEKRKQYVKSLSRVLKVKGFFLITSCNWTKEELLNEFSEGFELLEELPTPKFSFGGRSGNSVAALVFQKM
UniProt P33316: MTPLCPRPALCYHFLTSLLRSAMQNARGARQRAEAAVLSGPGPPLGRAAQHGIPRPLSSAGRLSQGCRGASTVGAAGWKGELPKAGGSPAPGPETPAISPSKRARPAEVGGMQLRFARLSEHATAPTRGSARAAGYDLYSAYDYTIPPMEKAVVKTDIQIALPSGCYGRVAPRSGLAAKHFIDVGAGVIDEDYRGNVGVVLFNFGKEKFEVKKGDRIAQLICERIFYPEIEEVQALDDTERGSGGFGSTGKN
UniProt Q3B7T1: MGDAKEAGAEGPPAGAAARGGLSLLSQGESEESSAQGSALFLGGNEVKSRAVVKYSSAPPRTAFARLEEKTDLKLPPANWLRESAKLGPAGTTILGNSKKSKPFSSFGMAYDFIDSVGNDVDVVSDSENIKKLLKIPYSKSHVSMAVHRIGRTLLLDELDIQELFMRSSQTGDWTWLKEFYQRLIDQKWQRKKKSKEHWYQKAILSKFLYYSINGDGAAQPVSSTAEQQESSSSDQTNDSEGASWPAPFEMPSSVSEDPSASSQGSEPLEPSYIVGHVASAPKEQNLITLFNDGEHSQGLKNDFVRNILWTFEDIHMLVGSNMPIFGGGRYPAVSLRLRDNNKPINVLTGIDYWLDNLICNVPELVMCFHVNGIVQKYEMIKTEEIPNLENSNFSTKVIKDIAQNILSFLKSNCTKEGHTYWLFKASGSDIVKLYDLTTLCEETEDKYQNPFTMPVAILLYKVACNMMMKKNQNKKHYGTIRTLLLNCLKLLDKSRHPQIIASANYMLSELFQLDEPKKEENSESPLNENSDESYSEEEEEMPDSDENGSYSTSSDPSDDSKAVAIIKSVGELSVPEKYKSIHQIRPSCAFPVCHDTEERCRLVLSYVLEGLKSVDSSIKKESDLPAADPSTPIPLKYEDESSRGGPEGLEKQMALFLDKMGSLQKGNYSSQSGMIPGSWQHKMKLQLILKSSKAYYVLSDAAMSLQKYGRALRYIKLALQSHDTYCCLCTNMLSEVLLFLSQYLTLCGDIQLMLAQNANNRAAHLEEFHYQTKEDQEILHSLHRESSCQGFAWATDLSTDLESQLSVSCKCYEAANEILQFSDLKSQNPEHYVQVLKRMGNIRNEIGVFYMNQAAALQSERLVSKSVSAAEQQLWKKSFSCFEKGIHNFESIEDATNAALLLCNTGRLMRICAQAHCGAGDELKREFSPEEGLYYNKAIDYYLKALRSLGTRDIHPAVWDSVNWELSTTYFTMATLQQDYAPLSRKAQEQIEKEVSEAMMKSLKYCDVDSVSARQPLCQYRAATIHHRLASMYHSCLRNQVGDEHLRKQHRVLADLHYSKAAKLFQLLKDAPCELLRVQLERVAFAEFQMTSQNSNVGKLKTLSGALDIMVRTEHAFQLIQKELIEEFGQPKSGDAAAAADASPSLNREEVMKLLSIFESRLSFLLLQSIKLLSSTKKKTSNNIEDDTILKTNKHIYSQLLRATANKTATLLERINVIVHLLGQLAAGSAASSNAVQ

The targets below were run with C1=CC=C(C=C1)[C@H](COC2=CC3=C(C=C2)NC(=O)N3)NC(=O)C4=CC=CN(C4=O)CC5=CC(=C(C=C5)F)F (assay: log2 fold change, soluble protein after heating vs DMSO (PISA); higher = thermal stabilisation; K562 lysate, 10 uM; active = over 0.2 and 3.5 SD of the protein, either way, in both replicates (recomputed)).
Method in brief: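 Values give the log-two fold change in thermal stability against solvent controls, from duplicates. Crude K562 extract at 1 mg/mL protein, made by dounce homogenisation in PBS pH 7.4 with 1 mM MgCl2, was treated with 10 μM compound for 30 min. After 3 min heating across 48°C-58°C, aliquots were pooled, adjusted to 0.5% NP-40 at 4°C and centrifuged at 21,000xg for 90 min. The supernatant was measured by TMTpro 16plex LC-MS/MS with channel sums equalised.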

Target | log2 fold change
EEF1AKMT4 (UniProt P0DPD7) | inactive: -0.061
DPH3 (UniProt Q96FX2) | inactive: -0.064
ECH1 (UniProt Q13011) | inactive: -0.059
EFL1 (UniProt Q7Z2Z2) | inactive: -0.005
EBNA1BP2 (UniProt Q99848) | inactive: -0.006
EAF1 (UniProt Q96JC9) | inactive: 0.034
DYSF isoform 13 (UniProt O75923) | inactive: -0.047
DTX3L (UniProt Q8TDB6) | inactive: 0.039
EEF1G isoform 2 (UniProt P26641) | inactive: -0.016
DPH5 isoform 5 (UniProt Q9H2P9) | inactive: 0.047
DST (UniProt Q03001) | inactive: -0.002
DTNBP1 (UniProt Q96EV8) | inactive: 0.017
DSC2 (UniProt Q02487) | inactive: -0.079
DTL (UniProt Q9NZJ0) | inactive: 0.033
ECI1 (UniProt P42126) | inactive: 0.005
EEF1D isoform 3 (UniProt P29692) | inactive: -0.068
DVL2 (UniProt O14641) | inactive: -0.012
EHBP1 isoform 2 (UniProt Q8NDI1) | inactive: 0.039
DXO (UniProt O77932) | inactive: -0.074
EIF2A (UniProt Q9BY44) | inactive: 0
EEF1AKMT2, A0A494BZY7 | inactive: 0.027
DUT (UniProt P33316) | inactive: 0.049
EDRF1 (UniProt Q3B7T1) | inactive: 0.026

An excerpt of these results, in CSV form:
Target,log2 fold change
EEF1AKMT4 (UniProt P0DPD7),inactive: -0.061
DYSF isoform 13 (UniProt O75923),inactive: -0.047
DTX3L (UniProt Q8TDB6),inactive: 0.039
DSC2 (UniProt Q02487),inactive: -0.079
ECI1 (UniProt P42126),inactive: 0.005
EHBP1 isoform 2 (UniProt Q8NDI1),inactive: 0.039
EIF2A (UniProt Q9BY44),inactive: 0
